In the supplement of paper PMC10849652:
The list shows a part of the results.

Amino acid sequences for entries named in this document (tags omitted). A change or cut given only in a name is not applied to a line headed by its entry.
UniProt P52701: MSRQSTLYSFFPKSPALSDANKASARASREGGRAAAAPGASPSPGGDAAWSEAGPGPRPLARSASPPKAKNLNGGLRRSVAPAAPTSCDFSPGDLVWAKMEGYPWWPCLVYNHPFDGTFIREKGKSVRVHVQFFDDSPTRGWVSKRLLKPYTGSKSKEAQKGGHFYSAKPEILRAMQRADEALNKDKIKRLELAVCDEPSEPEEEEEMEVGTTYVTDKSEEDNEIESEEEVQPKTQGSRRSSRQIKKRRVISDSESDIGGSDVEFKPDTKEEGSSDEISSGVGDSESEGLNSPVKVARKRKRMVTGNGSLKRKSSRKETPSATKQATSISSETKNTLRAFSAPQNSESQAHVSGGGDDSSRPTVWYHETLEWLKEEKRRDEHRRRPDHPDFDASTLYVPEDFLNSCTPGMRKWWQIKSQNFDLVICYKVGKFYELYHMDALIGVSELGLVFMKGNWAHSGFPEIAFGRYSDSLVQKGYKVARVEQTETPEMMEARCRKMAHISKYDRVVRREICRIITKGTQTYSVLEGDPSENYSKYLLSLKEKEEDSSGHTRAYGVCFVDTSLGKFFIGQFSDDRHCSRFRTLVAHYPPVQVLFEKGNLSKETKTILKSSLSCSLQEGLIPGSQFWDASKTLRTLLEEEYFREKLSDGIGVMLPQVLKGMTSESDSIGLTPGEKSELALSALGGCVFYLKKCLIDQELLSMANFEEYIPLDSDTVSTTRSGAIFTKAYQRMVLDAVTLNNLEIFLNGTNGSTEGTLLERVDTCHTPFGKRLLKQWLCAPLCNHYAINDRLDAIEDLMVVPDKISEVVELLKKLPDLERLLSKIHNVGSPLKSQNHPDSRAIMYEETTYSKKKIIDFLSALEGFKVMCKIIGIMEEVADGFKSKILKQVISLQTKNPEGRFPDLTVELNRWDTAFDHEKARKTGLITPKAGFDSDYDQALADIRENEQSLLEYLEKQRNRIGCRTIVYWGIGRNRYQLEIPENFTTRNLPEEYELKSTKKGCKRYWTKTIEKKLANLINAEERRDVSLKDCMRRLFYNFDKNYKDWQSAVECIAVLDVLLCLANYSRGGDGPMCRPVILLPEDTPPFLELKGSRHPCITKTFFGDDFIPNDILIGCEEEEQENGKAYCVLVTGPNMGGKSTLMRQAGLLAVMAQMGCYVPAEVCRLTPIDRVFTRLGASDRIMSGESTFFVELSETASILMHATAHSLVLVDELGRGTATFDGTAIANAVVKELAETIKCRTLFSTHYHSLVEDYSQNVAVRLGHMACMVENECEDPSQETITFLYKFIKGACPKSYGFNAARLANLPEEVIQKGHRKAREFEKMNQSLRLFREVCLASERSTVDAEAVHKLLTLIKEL
UniProt Q96QG7: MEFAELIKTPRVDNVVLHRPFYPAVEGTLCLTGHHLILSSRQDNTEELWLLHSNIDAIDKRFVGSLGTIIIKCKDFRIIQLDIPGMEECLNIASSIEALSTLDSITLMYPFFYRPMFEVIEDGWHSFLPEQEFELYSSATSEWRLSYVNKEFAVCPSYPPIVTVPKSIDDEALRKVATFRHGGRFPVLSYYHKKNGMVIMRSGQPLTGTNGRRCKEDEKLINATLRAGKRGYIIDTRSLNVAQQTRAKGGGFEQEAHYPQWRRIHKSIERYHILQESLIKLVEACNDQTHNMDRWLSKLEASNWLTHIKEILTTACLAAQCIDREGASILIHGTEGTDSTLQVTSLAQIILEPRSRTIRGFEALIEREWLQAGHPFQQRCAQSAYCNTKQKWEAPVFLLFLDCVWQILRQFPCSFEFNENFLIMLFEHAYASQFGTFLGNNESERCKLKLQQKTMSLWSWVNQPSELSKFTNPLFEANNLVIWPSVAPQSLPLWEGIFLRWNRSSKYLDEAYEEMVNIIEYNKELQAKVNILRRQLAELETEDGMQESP
UniProt Q9UDX5: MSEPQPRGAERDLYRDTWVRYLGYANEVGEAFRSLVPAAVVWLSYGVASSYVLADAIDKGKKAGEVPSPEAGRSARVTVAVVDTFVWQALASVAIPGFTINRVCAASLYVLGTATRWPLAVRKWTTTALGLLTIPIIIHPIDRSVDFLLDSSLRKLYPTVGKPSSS
UniProt P20585: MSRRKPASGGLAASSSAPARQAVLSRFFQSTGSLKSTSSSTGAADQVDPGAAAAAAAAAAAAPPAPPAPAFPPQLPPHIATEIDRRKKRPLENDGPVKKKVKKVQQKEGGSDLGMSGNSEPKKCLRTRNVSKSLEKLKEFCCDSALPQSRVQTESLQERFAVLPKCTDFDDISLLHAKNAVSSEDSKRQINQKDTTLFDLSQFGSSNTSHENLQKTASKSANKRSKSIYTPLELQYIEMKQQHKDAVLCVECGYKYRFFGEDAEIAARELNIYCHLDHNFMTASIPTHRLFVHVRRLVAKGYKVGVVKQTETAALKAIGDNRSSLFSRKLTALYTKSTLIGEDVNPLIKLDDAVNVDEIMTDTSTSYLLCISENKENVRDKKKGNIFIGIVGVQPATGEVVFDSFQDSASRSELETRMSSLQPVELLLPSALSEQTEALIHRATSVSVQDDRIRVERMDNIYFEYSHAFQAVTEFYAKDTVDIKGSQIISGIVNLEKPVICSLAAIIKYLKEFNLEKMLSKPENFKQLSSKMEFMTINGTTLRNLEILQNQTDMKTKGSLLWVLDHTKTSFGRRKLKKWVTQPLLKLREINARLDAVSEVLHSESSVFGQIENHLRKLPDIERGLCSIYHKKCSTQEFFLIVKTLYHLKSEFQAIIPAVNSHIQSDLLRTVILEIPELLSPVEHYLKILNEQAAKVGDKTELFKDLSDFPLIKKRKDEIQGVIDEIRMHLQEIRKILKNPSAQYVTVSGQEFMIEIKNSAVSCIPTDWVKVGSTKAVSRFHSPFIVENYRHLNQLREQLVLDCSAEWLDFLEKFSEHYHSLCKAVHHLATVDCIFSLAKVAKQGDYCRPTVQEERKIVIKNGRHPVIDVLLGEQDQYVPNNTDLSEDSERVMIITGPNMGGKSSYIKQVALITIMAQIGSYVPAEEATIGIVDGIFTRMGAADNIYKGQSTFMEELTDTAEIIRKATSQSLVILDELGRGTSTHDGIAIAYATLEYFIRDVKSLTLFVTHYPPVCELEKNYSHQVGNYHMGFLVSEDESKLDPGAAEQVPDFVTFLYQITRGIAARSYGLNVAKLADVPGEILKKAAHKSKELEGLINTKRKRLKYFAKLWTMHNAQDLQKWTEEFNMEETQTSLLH
UniProt P00403, whole entry, looked up: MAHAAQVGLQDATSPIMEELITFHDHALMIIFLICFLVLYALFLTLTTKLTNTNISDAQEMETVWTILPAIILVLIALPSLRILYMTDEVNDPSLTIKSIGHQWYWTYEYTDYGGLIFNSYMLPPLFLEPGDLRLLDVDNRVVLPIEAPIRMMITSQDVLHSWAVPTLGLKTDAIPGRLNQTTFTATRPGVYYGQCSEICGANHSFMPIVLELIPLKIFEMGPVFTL
MTHFD1, A0A384N5Y3, UniProt A0A384N5Y3, whole entry, looked up: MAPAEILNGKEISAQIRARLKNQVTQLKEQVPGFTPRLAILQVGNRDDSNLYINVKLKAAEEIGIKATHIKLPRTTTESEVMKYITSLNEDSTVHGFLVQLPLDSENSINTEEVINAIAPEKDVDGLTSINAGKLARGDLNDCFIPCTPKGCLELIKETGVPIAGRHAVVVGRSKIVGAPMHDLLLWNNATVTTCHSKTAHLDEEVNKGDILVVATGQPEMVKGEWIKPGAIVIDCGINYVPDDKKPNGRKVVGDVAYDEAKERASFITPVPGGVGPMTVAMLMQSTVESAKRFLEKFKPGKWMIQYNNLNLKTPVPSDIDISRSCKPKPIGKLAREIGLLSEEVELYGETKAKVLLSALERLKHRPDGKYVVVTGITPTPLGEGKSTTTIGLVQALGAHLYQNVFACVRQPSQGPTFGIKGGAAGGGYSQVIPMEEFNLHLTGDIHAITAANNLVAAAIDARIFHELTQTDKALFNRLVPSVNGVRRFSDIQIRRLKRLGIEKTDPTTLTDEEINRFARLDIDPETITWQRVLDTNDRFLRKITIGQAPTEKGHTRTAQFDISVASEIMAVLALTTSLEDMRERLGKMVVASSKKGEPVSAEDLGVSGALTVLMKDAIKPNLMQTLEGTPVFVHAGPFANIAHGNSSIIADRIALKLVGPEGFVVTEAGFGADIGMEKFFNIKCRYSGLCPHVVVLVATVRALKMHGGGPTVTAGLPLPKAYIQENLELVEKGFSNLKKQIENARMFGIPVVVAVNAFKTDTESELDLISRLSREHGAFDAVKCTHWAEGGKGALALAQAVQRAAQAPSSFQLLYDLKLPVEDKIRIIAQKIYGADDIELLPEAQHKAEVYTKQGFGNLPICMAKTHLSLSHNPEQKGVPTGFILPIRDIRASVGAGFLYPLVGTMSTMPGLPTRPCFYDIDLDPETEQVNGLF
UniProt Q765P7: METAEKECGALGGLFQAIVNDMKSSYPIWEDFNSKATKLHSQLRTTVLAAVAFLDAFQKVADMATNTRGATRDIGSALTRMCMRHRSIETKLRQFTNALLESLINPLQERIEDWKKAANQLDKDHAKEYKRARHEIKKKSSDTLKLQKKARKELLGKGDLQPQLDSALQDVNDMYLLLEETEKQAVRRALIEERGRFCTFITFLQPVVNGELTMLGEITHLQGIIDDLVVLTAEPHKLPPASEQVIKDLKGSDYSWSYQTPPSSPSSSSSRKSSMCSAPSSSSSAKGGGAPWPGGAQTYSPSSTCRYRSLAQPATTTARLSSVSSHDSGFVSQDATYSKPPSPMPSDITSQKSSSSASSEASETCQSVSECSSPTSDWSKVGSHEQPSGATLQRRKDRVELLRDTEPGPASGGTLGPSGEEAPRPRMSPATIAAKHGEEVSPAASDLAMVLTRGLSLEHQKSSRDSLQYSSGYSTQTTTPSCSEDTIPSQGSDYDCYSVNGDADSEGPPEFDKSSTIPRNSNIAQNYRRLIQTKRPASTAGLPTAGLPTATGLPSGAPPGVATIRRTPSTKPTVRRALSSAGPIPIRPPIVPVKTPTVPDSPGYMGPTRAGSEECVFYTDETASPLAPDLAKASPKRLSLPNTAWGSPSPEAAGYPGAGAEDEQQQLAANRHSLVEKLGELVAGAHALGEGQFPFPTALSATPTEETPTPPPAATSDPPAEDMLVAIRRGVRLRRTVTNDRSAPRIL
UniProt Q13505: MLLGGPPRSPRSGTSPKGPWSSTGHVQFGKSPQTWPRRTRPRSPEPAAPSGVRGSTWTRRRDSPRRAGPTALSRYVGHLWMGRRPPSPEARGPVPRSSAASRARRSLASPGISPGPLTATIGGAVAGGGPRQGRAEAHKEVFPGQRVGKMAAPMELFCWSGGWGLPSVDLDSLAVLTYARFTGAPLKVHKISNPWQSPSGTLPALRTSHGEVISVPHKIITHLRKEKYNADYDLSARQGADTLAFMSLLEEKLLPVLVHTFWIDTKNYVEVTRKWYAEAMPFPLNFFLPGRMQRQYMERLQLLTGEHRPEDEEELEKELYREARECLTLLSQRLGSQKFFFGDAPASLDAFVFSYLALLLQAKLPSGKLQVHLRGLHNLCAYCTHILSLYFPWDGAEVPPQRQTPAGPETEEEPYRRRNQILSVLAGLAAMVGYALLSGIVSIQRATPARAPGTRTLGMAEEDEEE
UniProt P13995: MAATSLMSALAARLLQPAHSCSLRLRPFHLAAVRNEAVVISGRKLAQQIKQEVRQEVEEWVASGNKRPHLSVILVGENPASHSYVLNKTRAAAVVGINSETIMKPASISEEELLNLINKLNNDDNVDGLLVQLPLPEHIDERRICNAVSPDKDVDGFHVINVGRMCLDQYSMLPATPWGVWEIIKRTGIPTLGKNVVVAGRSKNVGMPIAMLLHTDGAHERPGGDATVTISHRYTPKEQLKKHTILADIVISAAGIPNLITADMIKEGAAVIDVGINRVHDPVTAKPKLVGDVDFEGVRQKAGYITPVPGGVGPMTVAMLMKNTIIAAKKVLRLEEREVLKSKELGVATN

Columns and labels:
Experiment in all cases: log2 fold change, soluble protein after heating vs DMSO (PISA); higher = thermal stabilisation; K562 lysate, 10 uM; active = over 0.2 and 3.5 SD of the protein, either way, in both replicates (recomputed)
[1] = compound: C#Cc1cccc(Nc2ncnc3cc(OCCOC)c(OCCOC)cc23)c1 [erlotinib]
How it was run: (§1)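 A 30 min treatment with 10 μM compound was applied to crude K562 extract at 1 mg/mL protein in PBS pH 7.4 with 1 mM MgCl2. Heating for 3 min spanned 48°C-58°C, after which aliquots were pooled, adjusted to 0.5% NP-40 at 4°C and spun at 21,000xg for 90 min. TMTpro 16plex LC-MS/MS of the supernatant, with channel sums equalised, gave values recorded as log-two fold change in thermal stability against solvent controls, from duplicates.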

[2] = compound: C/C(=N\NC(=O)C1=CC(=CC=C1)S(=O)(=O)N2CCOCC2)/C3=C(C=CC(=C3)Cl)O
How it was run: as §1

[3] = compound: C1=CC(=CC=C1C2=NC3=C(N2)C=C(C=C3)C(=O)N)OC4=CC=C(C=C4)Cl
How it was run: as §1

[4] = compound: C1=CC2=C(C=CC(=C2)/C=C\3/C(=O)NC(=NCC4=CC=CS4)S3)N=C1
How it was run: as §1

[5] = compound: C1=CC2=NC=CN=C2C=C1/C=C/3\C(=O)NC(=O)S3
How it was run: as §1

[6] = compound: C1=CC=C(C=C1)C2=NC(=C(N2)C3=CC=NC=C3)C4=CC(=C(C=C4)Cl)O
How it was run: as §1

[7] = compound: C1=CC=C2C(=C1)C3=NNC4=CC=CC(=C43)C2=O
How it was run: as §1

[8] = compound: C1CCN(C1)C(=O)NC2=CC=CC(=C2)NC3=NC=C(C(=N3)NCCC4=CN=CN4)Br
How it was run: as §1

[9] = compound: C1CN(CCC1(CC2=CC=C(C=C2)Cl)N)C3=NC=NC4=C3C=CN4
How it was run: as §1

[10] = compound: C1COCCN1CCN2C3=CC=CC=C3N=C2NC(=O)C4=CC(=CC=C4)[N+](=O)[O-] [IRAK-1-4 Inhibitor I]
How it was run: as §1

[11] = compound: C=CC(=O)N1CCC[C@@H](n2nc(-c3ccc(Oc4ccccc4)cc3)c3c(N)ncnc32)C1 [ibrutinib]
How it was run: as §1

[12] = compound: CC(=O)c1cnc2ccc(-c3cc(Cl)c(O)c(Cl)c3)nc2c1N[C@H]1CC[C@H](CN(C)C)CC1
How it was run: as §1

[13] = compound: CC(C)(C)Cn1c(N)nc2ccc(-c3[nH]c(C(C)(C)C)nc3-c3ccc(F)cc3)nc21 [ralimetinib]
How it was run: as §1

[14] = compound: CC(C)(O)CC(=O)NCCn1ccc2ncnc(Nc3ccc(Oc4cccc(C(F)(F)F)c4)c(Cl)c3)c21
How it was run: as §1

[15] = compound: CC(C)C1=C2N=C(C=C(N2N=C1)NCC3=CC=CC=C3)NCCCCCCN
How it was run: as §1

[16] = compound: CC1=C(C(CC(=O)N1)C2=CC=C(C=C2)C(F)(F)F)C(=O)NC3=C(C=C4C(=C3)C=NN4)F
How it was run: as §1

[17] = compound: CC1=C(C2=C(C=C1)C(=O)C3=CC=CC=C3N2CCCN)C
How it was run: as §1

[18] = compound: CC1=C(C=C(C=C1)NC(=O)C2=CC(=CC=C2)C(C)(C)C#N)NC3=CC4=C(C=C3)N=CN(C4=O)C
How it was run: as §1

[19] = compound: CC1=C(C=C(C=C1)NC(=O)C2=CC(=CC=C2)N(C)C)NC(=O)C3=CC=C(C=C3)O
How it was run: as §1

[20] = compound: CC1=CC=C(C=C1)SC2=C3C=C(SC3=CN=C2)C(=O)N
How it was run: as §1

Measured: log2 fold change

MRPS7 (UniProt Q9Y2R9)
inactive: [1] 0.045 | [2] 0.025 | [3] 0.081 | [4] 0.034 | [5] -0.028 | [6] 0 | [7] 0.007 | [8] -0.016 | [9] -0.044 | [10] 0.004 | [11] 0.003 | [12] -0.004 | [13] 0.019 | [14] -0.052 | [15] 0.063 | [16] 0.029 | [17] -0.071 | [18] 0.052 | [19] 0.048 | [20] 0.014

MSH6 (UniProt P52701)
inactive: [1] 0.011 | [2] 0.03 | [3] -0.023 | [4] 0.031 | [5] 0.041 | [6] 0.008 | [7] -0.025 | [8] 0 | [9] -0.014 | [10] -0.008 | [11] 0.001 | [12] 0.022 | [13] 0.024 | [14] 0.003 | [15] 0.027 | [16] -0.01 | [17] -0.01 | [18] -0.002 | [19] 0.057 | [20] 0.003

MTMR9 (UniProt Q96QG7)
inactive: [1] -0.033 | [2] 0.064 | [3] 0.002 | [4] 0.078 | [5] 0.042 | [6] 0.042 | [7] -0.05 | [8] -0.02 | [9] 0.06 | [10] 0.034 | [11] 0.014 | [12] 0.003 | [13] -0.013 | [14] -0.021 | [15] 0.067 | [16] 0.187 | [17] -0.017 | [18] -0.038 | [19] -0.001 | [20] 0.027

MRPL39 isoform 2 (UniProt Q9NYK5)
inactive: [1] 0.018 | [2] 0.031 | [3] 0.016 | [4] -0.009 | [5] 0.049 | [6] 0.022 | [7] -0.014 | [8] -0.062 | [9] 0 | [10] 0.041 | [11] 0.003 | [12] -0.007 | [13] 0 | [14] -0.053 | [15] -0.007 | [16] 0.006 | [17] -0.021 | [18] 0.015 | [19] 0.02 | [20] -0.054

MTFP1 (UniProt Q9UDX5)
inactive: [1] -0.006 | [2] 0.092 | [3] 0.035 | [4] 0.041 | [5] -0.043 | [6] -0.003 | [7] 0.081 | [8] -0.044 | [9] 0.044 | [10] -0.058 | [11] 0.097 | [12] -0.065 | [13] -0.017 | [14] 0.079 | [15] -0.058 | [16] 0.018 | [17] 0.009 | [18] -0.011 | [19] -0.048 | [20] -0.001

MSH3 (UniProt P20585)
inactive: [1] -0.046 | [2] -0.021 | [3] 0.042 | [4] 0.011 | [5] -0.025 | [6] 0.007 | [7] -0.026 | [8] -0.038 | [9] 0.058 | [10] 0.004 | [11] 0 | [12] -0.017 | [13] 0.024 | [14] -0.037 | [15] -0.039 | [16] 0.023 | [17] -0.025 | [18] -0.018 | [19] -0.007 | [20] -0.005

MRPL32 (UniProt Q9BYC8)
inactive: [1] -0.008 | [2] -0.028 | [3] 0.005 | [4] 0.046 | [5] -0.009 | [6] -0.005 | [7] -0.013 | [8] -0.009 | [9] 0.06 | [10] -0.001 | [11] 0.071 | [12] 0.038 | [13] -0.032 | [14] 0.003 | [15] -0.005 | [16] 0.006 | [17] -0.037 | [18] 0.06 | [19] 0.013 | [20] 0.016

Random excerpt: two records from the list
MSH3 (UniProt P20585)
inactive: [1] -0.046 | [2] -0.021 | [3] 0.042 | [4] 0.011 | [5] -0.025 | [6] 0.007 | [7] -0.026 | [8] -0.038 | [9] 0.058 | [10] 0.004 | [11] 0 | [12] -0.017 | [13] 0.024 | [14] -0.037 | [15] -0.039 | [16] 0.023 | [17] -0.025 | [18] -0.018 | [19] -0.007 | [20] -0.005

MTFP1 (UniProt Q9UDX5)
inactive: [1] -0.006 | [2] 0.092 | [3] 0.035 | [4] 0.041 | [5] -0.043 | [6] -0.003 | [7] 0.081 | [8] -0.044 | [9] 0.044 | [10] -0.058 | [11] 0.097 | [12] -0.065 | [13] -0.017 | [14] 0.079 | [15] -0.058 | [16] 0.018 | [17] 0.009 | [18] -0.011 | [19] -0.048 | [20] -0.001

(list continues)

MRPL40 (UniProt Q9NQ50)
inactive: [1] -0.003 | [2] 0.035 | [3] 0.017 | [4] 0.015 | [5] 0.005 | [6] 0 | [7] -0.079 | [8] 0.047 | [9] -0.028 | [10] 0.003 | [11] 0.016 | [12] 0.077 | [13] 0.034 | [14] -0.031 | [15] -0.005 | [16] -0.016 | [17] -0.116 | [18] 0.037 | [19] 0.016 | [20] -0.002

MTOR (UniProt P42345)
inactive: [1] 0.02 | [2] 0.031 | [3] -0.058 | [4] -0.022 | [5] 0.038 | [6] 0.025 | [7] -0.018 | [8] -0.012 | [9] 0.003 | [10] 0.006 | [11] -0.016 | [12] 0.001 | [13] 0.018 | [14] -0.005 | [15] -0.043 | [16] 0.02 | [17] 0.019 | [18] 0.031 | [19] 0.058 | [20] -0.013

MT-CO2 (UniProt P00403)
inactive: [1] -0.028 | [2] -0.078 | [3] -0.006 | [4] -0.001 | [5] -0.15 | [6] -0.015 | [7] 0.026 | [8] 0.008 | [9] 0.057 | [10] 0.022 | [11] 0.035 | [12] 0.018 | [13] 0.051 | [14] -0.001 | [15] -0.039 | [16] -0.034 | [17] -0.049 | [18] 0 | [19] -0.017 | [20] 0.055

MTA1 (UniProt Q13330)
inactive: [1] 0.006 | [2] 0 | [3] 0.013 | [4] 0.017 | [5] -0.036 | [6] 0 | [7] -0.035 | [8] 0.002 | [9] -0.008 | [10] 0.015 | [11] -0.018 | [12] -0.025 | [13] 0.001 | [14] 0.006 | [15] -0.007 | [16] -0.004 | [17] 0 | [18] -0.008 | [19] 0.034 | [20] -0.018

MTHFD1, A0A384N5Y3
inactive: [1] 0.024 | [2] 0.041 | [3] -0.004 | [4] 0.04 | [5] 0.029 | [6] 0.02 | [7] -0.039 | [8] 0.021 | [9] 0.015 | [10] 0.002 | [11] -0.014 | [12] -0.001 | [13] 0.028 | [14] 0.028 | [15] 0.03 | [16] -0.033 | [17] -0.032 | [18] 0.003 | [19] 0.047 | [20] 0.014

MTSS2 (UniProt Q765P7)
inactive: [1] -0.025 | [2] -0.086 | [3] 0.027 | [4] 0.034 | [5] -0.012 | [6] 0.011 | [7] -0.057 | [8] -0.056 | [9] -0.009 | [10] -0.033 | [11] 0.054 | [12] 0 | [13] -0.026 | [14] -0.021 | [15] -0.025 | [16] 0.032 | [17] -0.067 | [18] -0.032 | [19] 0.028 | [20] 0.004

MRPL48 (UniProt Q96GC5)
inactive: [1] -0.007 | [2] 0.052 | [3] -0.032 | [4] 0.011 | [5] -0.005 | [6] 0 | [7] 0.03 | [8] -0.015 | [9] -0.026 | [10] -0.032 | [11] -0.05 | [12] 0.052 | [13] 0.03 | [14] -0.019 | [15] 0.023 | [16] 0.035 | [17] -0.063 | [18] 0.022 | [19] 0.04 | [20] 0.017

MTX1 (UniProt Q13505)
inactive: [1] -0.009 | [2] -0.035 | [3] 0.021 | [4] -0.028 | [5] 0.015 | [6] -0.009 | [7] -0.006 | [8] 0.005 | [9] 0.009 | [10] 0.024 | [11] 0.035 | [12] -0.015 | [13] -0.041 | [14] 0.021 | [15] -0.01 | [16] 0.024 | [17] 0.009 | [18] 0.028 | [19] 0.012 | [20] -0.003

MTHFD2 (UniProt P13995)
inactive: [1] -0.031 | [2] 0.001 | [3] 0 | [4] 0.032 | [5] -0.027 | [6] -0.016 | [7] -0.027 | [8] -0.063 | [9] 0.007 | [10] 0.02 | [11] -0.036 | [12] 0.01 | [13] 0.002 | [14] -0.019 | [15] 0.015 | [16] -0.03 | [17] 0.006 | [18] 0.02 | [19] 0.05 | [20] 0.009
